# Source: the supplement of paper PMC11732987, “Enantioselective OTUD7B fragment discovery through chemoproteomics screening and high-throughput optimisation” (Communications Chemistry, 2025)
# Protein sequences, listed by entry. Tags and fused reporters are not part of them. Lines headed by an entry give the natural chain unless they say otherwise; changes in a name come on top. Residues count along the entry.
# UniProt Q96EK7: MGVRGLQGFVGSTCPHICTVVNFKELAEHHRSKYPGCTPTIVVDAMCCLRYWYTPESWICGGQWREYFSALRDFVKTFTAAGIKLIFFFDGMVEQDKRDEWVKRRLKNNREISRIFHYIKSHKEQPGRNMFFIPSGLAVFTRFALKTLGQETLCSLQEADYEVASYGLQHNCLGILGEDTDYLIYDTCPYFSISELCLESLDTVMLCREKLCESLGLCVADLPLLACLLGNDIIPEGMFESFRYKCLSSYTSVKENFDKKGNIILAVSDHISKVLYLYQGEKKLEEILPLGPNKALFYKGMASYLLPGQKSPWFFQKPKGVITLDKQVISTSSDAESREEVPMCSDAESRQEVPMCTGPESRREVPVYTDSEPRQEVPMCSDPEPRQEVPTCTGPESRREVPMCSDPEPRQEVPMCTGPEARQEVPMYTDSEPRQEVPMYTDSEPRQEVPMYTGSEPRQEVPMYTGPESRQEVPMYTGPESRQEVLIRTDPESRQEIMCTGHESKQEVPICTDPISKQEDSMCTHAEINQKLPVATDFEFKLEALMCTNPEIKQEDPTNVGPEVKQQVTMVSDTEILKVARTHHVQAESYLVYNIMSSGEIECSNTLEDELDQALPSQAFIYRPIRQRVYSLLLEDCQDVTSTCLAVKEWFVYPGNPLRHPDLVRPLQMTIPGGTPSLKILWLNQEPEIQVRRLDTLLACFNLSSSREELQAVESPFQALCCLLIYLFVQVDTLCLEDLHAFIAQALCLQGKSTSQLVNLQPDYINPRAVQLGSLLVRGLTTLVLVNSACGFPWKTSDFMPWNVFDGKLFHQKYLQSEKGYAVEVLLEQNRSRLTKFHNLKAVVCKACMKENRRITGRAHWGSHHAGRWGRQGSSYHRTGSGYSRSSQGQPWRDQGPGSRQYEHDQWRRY
# UniProt Q9HB96: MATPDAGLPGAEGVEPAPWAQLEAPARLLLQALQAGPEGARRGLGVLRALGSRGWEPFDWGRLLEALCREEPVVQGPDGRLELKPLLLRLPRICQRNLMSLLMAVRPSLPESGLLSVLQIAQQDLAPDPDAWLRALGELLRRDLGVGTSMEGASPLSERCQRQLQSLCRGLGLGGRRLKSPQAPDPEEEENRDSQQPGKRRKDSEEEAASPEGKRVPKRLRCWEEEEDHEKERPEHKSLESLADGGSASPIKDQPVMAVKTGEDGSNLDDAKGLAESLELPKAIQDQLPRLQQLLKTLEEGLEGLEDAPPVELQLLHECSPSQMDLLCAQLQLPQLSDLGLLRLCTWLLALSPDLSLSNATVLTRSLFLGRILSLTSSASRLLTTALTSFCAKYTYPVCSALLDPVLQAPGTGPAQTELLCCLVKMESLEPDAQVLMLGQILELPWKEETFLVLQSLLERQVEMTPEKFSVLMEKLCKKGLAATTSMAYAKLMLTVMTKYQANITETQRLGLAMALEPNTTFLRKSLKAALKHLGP
# UniProt Q2NKX8: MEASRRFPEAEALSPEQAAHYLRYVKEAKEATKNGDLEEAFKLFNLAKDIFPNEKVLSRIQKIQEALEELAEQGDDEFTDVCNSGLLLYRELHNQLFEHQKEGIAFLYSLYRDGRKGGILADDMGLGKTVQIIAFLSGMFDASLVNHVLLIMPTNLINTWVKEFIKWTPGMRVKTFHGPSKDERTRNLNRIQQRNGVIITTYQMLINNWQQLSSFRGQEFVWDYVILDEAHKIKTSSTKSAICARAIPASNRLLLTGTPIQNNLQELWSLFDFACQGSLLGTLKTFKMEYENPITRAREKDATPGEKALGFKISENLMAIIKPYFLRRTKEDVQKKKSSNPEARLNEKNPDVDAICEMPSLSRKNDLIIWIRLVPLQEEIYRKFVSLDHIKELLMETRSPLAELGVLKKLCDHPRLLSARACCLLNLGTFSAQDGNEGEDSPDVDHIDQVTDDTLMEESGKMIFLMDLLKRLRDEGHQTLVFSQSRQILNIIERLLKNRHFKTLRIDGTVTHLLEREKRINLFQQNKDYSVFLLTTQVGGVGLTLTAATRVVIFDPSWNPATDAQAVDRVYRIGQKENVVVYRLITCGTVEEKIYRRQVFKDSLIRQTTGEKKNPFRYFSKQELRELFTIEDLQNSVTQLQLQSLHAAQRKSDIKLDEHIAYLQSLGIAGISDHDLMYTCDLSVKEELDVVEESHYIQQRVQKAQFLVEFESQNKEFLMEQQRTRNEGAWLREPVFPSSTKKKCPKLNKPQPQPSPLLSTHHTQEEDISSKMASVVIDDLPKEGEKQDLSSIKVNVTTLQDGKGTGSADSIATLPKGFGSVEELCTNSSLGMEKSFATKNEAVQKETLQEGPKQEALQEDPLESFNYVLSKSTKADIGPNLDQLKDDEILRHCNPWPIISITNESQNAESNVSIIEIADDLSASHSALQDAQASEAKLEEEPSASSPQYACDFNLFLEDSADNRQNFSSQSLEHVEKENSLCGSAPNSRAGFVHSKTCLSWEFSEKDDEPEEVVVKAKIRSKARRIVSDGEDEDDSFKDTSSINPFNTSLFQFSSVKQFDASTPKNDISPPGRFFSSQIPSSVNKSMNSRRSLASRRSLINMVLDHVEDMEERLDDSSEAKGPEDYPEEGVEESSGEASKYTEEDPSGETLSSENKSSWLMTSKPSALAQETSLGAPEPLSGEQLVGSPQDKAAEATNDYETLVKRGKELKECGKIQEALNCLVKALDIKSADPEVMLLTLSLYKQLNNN
# UniProt Q6ZRV2: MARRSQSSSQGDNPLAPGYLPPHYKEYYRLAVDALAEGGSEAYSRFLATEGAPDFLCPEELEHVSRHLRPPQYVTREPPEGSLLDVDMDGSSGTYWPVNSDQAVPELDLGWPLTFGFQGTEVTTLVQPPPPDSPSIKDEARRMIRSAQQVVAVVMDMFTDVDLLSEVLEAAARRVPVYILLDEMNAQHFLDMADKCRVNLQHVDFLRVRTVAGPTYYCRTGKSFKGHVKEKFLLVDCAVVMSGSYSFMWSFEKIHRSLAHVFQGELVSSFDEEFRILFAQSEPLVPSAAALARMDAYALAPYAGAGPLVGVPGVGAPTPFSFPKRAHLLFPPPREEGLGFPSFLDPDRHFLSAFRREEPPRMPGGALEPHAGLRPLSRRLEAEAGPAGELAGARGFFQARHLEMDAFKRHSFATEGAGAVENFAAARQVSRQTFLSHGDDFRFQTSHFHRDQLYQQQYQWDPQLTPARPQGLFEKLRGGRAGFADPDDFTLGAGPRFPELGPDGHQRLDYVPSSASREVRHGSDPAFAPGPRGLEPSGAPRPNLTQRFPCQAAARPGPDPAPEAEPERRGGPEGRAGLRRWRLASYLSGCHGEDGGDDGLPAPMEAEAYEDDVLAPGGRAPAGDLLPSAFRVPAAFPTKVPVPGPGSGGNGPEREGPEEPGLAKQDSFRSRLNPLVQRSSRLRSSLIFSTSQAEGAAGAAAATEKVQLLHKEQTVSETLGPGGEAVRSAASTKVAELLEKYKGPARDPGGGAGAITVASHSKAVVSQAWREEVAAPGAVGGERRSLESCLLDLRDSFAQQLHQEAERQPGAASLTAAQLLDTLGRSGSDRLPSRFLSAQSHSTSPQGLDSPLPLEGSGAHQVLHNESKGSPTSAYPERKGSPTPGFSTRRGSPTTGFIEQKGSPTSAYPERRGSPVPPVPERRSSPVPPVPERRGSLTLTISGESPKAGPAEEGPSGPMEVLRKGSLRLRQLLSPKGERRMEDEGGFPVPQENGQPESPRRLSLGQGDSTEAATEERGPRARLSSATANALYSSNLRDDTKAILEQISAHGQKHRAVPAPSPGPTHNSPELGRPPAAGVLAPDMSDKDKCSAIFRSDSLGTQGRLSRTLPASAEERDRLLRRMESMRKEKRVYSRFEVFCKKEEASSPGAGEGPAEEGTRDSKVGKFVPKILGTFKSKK
# UniProt Q7Z589: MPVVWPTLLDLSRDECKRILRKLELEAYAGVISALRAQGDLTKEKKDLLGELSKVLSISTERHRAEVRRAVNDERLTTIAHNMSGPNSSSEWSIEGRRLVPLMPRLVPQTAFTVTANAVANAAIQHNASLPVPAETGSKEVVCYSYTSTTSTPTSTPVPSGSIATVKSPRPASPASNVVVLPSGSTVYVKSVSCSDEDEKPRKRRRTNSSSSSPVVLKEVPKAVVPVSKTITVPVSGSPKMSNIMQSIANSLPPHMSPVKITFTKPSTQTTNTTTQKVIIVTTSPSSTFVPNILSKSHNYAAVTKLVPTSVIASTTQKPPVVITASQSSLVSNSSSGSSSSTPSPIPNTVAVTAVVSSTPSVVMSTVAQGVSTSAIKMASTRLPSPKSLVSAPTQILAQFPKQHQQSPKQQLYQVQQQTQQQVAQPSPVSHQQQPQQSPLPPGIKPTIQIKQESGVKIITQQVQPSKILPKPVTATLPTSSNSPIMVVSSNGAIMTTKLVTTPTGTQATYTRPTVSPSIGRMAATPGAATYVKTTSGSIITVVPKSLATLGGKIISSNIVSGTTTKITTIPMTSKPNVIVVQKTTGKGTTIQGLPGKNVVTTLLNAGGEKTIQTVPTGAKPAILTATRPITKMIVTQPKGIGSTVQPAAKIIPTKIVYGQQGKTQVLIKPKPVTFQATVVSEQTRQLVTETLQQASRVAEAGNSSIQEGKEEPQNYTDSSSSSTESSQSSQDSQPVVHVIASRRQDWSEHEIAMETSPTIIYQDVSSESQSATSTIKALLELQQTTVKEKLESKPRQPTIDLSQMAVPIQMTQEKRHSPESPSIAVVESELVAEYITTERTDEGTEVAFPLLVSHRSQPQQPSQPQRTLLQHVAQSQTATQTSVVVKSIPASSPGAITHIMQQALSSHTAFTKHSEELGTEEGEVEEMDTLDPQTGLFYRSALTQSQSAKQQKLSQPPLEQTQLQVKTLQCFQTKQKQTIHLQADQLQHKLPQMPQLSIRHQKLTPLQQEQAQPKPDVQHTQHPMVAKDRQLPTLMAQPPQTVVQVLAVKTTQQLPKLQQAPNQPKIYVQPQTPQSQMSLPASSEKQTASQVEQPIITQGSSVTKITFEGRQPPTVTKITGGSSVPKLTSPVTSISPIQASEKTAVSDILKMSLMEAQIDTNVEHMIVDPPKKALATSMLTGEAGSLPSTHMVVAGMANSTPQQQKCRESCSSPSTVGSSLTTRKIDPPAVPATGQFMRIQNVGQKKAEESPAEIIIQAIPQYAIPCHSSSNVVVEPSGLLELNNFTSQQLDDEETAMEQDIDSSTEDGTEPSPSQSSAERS
# UniProt Q15024, 71-96: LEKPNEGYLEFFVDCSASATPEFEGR
# UniProt Q92979: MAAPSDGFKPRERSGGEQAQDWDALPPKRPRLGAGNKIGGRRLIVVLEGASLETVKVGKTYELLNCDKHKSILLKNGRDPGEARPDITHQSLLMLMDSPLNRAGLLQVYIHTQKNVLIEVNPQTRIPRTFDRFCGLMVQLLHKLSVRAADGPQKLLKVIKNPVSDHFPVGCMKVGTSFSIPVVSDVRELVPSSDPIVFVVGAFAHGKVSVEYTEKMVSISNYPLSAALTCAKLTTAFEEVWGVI
# UniProt Q9H0I2, 171-193: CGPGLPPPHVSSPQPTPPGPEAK
# UniProt Q15369: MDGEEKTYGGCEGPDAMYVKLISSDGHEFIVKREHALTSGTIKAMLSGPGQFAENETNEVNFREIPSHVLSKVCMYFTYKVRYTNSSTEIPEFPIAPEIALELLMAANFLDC
# UniProt Q9NZ08: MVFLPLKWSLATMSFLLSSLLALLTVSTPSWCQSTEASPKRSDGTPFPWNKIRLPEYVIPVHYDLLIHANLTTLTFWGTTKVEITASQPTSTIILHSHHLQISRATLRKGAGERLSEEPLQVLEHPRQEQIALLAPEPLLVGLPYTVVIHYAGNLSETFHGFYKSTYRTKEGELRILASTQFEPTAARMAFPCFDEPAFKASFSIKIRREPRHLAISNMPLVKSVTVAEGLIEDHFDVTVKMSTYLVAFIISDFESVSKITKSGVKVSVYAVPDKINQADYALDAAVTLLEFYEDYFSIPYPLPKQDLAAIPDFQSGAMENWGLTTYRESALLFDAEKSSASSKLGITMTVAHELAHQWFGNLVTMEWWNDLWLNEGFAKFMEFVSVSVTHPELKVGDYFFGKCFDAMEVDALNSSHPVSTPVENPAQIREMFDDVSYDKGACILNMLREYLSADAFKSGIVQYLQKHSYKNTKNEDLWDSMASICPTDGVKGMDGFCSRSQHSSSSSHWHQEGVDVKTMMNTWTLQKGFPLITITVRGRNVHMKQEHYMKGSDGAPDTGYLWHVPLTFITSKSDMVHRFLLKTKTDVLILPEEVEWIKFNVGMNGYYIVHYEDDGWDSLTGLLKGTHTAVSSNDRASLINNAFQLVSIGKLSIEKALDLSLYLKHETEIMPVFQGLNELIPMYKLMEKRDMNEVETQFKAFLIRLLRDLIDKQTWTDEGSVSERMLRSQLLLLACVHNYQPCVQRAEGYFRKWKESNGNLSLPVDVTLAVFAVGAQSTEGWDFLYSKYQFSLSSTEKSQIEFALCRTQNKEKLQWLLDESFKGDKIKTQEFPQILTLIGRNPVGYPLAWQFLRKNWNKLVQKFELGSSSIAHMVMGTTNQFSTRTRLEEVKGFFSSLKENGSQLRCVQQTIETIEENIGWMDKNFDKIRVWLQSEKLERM
# Some of the results follow. The data scatter; read single values as rough.
# What was measured:
# [1] = compound: ClCC(=O)N[C@@H]1CCCc2ccccc12; experiment: log2 mean competition ratio of IA-DTB cysteine labelling (DMSO/compound) (log2 ratio); higher = stronger cysteine engagement by compound; settings: treatment time: 4 h, cell line lysate: HEK293T
# Experimental: (§1)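 IA-DTB competitive cysteine chemoproteomics in HEK293T RIPA lysate. Lysates were treated with compound 29 or 30 at 50 or 200 µM for 4 h, then IA-DTB (500 µM, 1 h), trypsin-digested, NeutrAvidin-enriched and analysed by diaPASEF. Competition ratio = intensity DMSO / intensity compound (n=4 treated, n=64 DMSO); binding: mean log2 CR ≥ 1 and p ≤ 0.05 plus QC filters. Target is the cysteine site.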
# [2] = compound: ClCC(=O)N[C@H]1CCCc2ccccc12; experiment: as above; settings: treatment time: 4 h, cell line lysate: HEK293T
# Experimental: as §1
Target,log2 mean competition ratio ([1]; 50 µM),log2 mean competition ratio ([1]; 200 µM),log2 mean competition ratio ([2]; 50 µM),log2 mean competition ratio ([2]; 200 µM)
ERCC2 C663 (UniProt P18074),0.103,-0.3,0.397,-0.239
F2R C411 (UniProt P25116),0.076,-0.192,,
EXTL3 C74 (UniProt O43909),0.00528,-0.0431,0.0893,0.291
FAM120B C392 (UniProt Q96EK7),-0.28,0.158,,
EPPK1 C2225(C2761)(C3292)(C3826)(C4360)(C4893) (UniProt P58107),-0.0286,-0.0428,,
ESCO2 C518 (UniProt Q56NI9),-0.258,0.203,,
EXOSC9 C61 (UniProt Q06265),-0.178,-0.101,-0.717,-0.23
FANCE C222 (UniProt Q9HB96),0.0716,0.194,-0.399,0.263
ERCC6L C1213 (UniProt Q2NKX8),-0.14,-0.0458,,
FAM120B C344 (UniProt Q96EK7),-0.141,0.612,,
ERGIC1 C115 (UniProt Q969X5),0.167,0.672,0.0561,0.522
FAAP20 C70 (UniProt Q6NZ36),-0.0997,-0.108,,
FAM83H C789 (UniProt Q6ZRV2),0.102,-0.163,,
ERCC6L C825 (UniProt Q2NKX8),-0.507,0.142,,
EXD2 C566 (UniProt Q9NVH0),0.246,-0.244,0.148,-0.417
ELP1 C23 (UniProt O95163),0.201,-0.174,0.254,-0.198
EMSY C1211 (UniProt Q7Z589),0.0895,-0.0313,0.0514,-0.0284
FAM120A C694,0.375,0.259,0.616,0.239
EPHB3 C648 (UniProt P54753),-0.309,-0.113,0.00899,0.21
EXOSC7 C85 (UniProt Q15024),0.0684,-0.265,0.165,0.0782

# Some of the entries so far, with tabs:
Target	log2 mean competition ratio ([1]; 50 µM)	log2 mean competition ratio ([1]; 200 µM)	log2 mean competition ratio ([2]; 50 µM)	log2 mean competition ratio ([2]; 200 µM)
ESCO2 C518 (UniProt Q56NI9)	-0.258	0.203		
EXOSC9 C61 (UniProt Q06265)	-0.178	-0.101	-0.717	-0.23
FANCE C222 (UniProt Q9HB96)	0.0716	0.194	-0.399	0.263
ERCC6L C1213 (UniProt Q2NKX8)	-0.14	-0.0458		
FAM120B C344 (UniProt Q96EK7)	-0.141	0.612		
ERGIC1 C115 (UniProt Q969X5)	0.167	0.672	0.0561	0.522
FAAP20 C70 (UniProt Q6NZ36)	-0.0997	-0.108		
FAM83H C789 (UniProt Q6ZRV2)	0.102	-0.163		
ERCC6L C825 (UniProt Q2NKX8)	-0.507	0.142		
EXD2 C566 (UniProt Q9NVH0)	0.246	-0.244	0.148	-0.417
ELP1 C23 (UniProt O95163)	0.201	-0.174	0.254	-0.198
EMSY C1211 (UniProt Q7Z589)	0.0895	-0.0313	0.0514	-0.0284

# Next part.

Target,log2 mean competition ratio ([1]; 50 µM),log2 mean competition ratio ([1]; 200 µM),log2 mean competition ratio ([2]; 50 µM),log2 mean competition ratio ([2]; 200 µM)
EPHB3 C772 (UniProt P54753),0.611,0.315,-0.0263,0.163
EXOSC5 C26 (UniProt Q9NQT4),-0.0749,-0.00494,-0.0746,0.0548
EXOSC7 C238 (UniProt Q15024),0.0219,-0.244,0.247,-0.0944
EMG1 C171 (UniProt Q92979),-0.0796,0.332,-0.697,0.00517
EPC1 C546 (UniProt Q9H2F5),0.0706,0.25,-0.667,0.128
ERCC8 C88 (UniProt Q13216),-0.216,-0.16,-0.14,-0.1
FAM53B C87 (UniProt Q14153),0.146,0.16,-0.285,0.0869
EXOC2 C638 (UniProt Q96KP1),-0.0435,0.233,-0.543,-0.277
FAM98B C93 (UniProt Q52LJ0),-0.0187,0.163,-0.353,0.00744
EXOSC6 C117 (UniProt Q5RKV6),-0.0123,0.357,-0.0604,-0.0921
ERMP1 C43 (UniProt Q7Z2K6),0.206,-0.049,0.313,0.137
FAM98B C295 (UniProt Q52LJ0),0.0897,-0.0997,0.178,-0.0959
ERCC4 C176 (UniProt Q92889),0.0059,0.342,-0.0074,0.23
ENKD1 C171 (UniProt Q9H0I2),-0.0786,0.183,-0.581,-0.122
ELOA C610 (UniProt Q14241),0.0837,-0.252,0.0971,-0.37
FAM120C C876 (UniProt Q9NX05),-0.317,0.535,-0.553,0.275
ERCC6 C1353,-0.15,0.0396,-0.0898,0.143
EPS15 C586 (UniProt P42566),-0.0854,0.157,-0.188,0.111
EXOSC8 C60 (UniProt Q96B26),0.17,-0.0363,-0.0837,-0.222
ELOC C11 (UniProt Q15369),0.0375,-0.242,0.0464,-0.142

Target,log2 mean competition ratio ([1]; 50 µM),log2 mean competition ratio ([1]; 200 µM),log2 mean competition ratio ([2]; 50 µM),log2 mean competition ratio ([2]; 200 µM)
FAHD2A C301 (UniProt Q96GK7),-0.442,-0.0165,-0.447,-0.0216
EXOC8 C521 (UniProt Q8IYI6),-0.118,-0.154,0.205,-0.142
ELP6 C218 (UniProt Q0PNE2),0.0376,-0.0283,0.195,0.01
FAM53C C276 (UniProt Q9NYF3),0.188,0.019,0.388,0.149
FAM117B C483 (UniProt Q6P1L5),-0.0698,-0.103,0.204,0.0939
FAM177A1 C114 (UniProt Q8N128),0.00184,-0.277,-0.252,-0.137
FANCD2 C310 (UniProt Q9BXW9),-0.232,0.053,-0.237,-0.191
EXOSC1 C8 (UniProt Q9Y3B2),0.0254,0.0885,0.108,0.0738
EXOC8 C664 (UniProt Q8IYI6),0.00391,0.0256,0.00115,0.0123
FAM241A C2 (UniProt Q8N8J7),-0.088,0.0723,0.107,0.237
ESPNL C523,0.187,0.172,-0.0251,0.179
FAM118B C319 (UniProt Q9BPY3),-0.282,-0.175,0.555,0.298
ELOVL7 C99 (UniProt A1L3X0),-0.126,-0.0179,0.0198,-0.057
ERAP1 C498 (UniProt Q9NZ08),0.0922,0.315,0.0177,0.192
EMILIN3 C330,0.0825,-0.0995,-0.368,0.26
EMSY C194 (UniProt Q7Z589),0.275,-0.0247,0.221,0.209
EXOC1 C650 (UniProt Q9NV70),0.356,0.0668,0.381,0.000319
ERN1 C951 (UniProt O75460),-0.0773,0.0514,0.131,0.0846
EXOC5 C542 (UniProt O00471),0.0194,0.122,-0.233,0.0261
EPS8 C767,-0.0853,-0.313,0.0391,-0.0214
